Test results as given in patent publication US20240207285A1 (Melt Pharmaceuticals, Inc., priority 2022, published 2024).
At least one read-out could not be matched to a standard name with certainty.

Assay: Phase 1 relative bioavailability study: plasma pharmacokinetics of midazolam, 1-hydroxymidazolam, ketamine and norketamine
Settings: Treatment D: ketamine 18 mg IV; mean
Protocol: PK analysis was performed using noncompartmental methods in Phoenix WinNonlin® (Version 8.1, Certara, L.P.) in conjunction with the internet-accessible implementation of the Pharsight® Knowledgebase Server™ (PKSO; Version 4.0.4, Certara, L.P). PKSO provides protected and structured storage, audit trails, and version control for study data, analyses, and related files, supporting 21 CFR Part 11 compliance. The analysis was performed in accordance with the Statistical Analysis Plan (Version 1.0, 5 Jan. 2021).
During the PK analysis, concentrations below the limit of quantitation (BLQ) up to the time of the first quantifiable concentration were treated as zero. Embedded (values between 2 quantifiable concentrations) and terminal BLQ concentrations were treated as “missing”. Calculation of the PK characteristics were based on actual elapsed times [h] (relative to time of dose).
All PK analyses were performed on the data from the PK Analysis Population. […] The ANOVA model included factors for sequence, subject within sequence, treatment, and period.

CNC1(c2ccccc2Cl)CCCCC1=O (stereo not shown) [Ketamine, 2-(2-chlorophenyl)-2-(methylamino)cyclohexanone]
Vz/F, ketamine: 867 L
